{"source": "PubChem BioAssay AID1224830 – NIAID, 2016", "assay": "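Genes whose knock-down alters the TNF-alpha reporter response to LPS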 (primary screen)", "cell system": "human THP-1 monocytic leukaemia cells, TNF dual-luciferase reporter clone, PMA-differentiated to macrophage-like cells", "knock-down reagent": "siRNA pool against human genes, 50 nM", "time to read-out": "LPS for 4 h, given about 3 days after siRNA transfection", "conditions": "bacterial LPS (TLR4 ligand), 10 ng/ml", "measured": "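TNF firefly reporter luminescence divided by renilla, normalised to the plate median, then turned into a robust z-score for each replicate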", "direction": "TNF reporter robust z-score: higher = stronger TNF reporter response to LPS", "active means": "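Each well counts as active if its z-score is over 2.8 or under -1.5; controls are left without a call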", "note": "Shown is a random part of about 18,000 reagents. About 2,900 of all reagents (16%) were called active. 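Calls are made per well; low scores hint the gene aids the LPS response, high scores that it dampens it.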 Repeated entries: four replicate wells of each siRNA pool."}
{"gene":"KCNH2","TNF reporter robust z-score":0.38,"activity call":"inactive"}
{"gene":"KCNH2","TNF reporter robust z-score":-0.53,"activity call":"inactive"}
{"gene":"KCNH2","TNF reporter robust z-score":-1.59,"activity call":"active"}
{"gene":"KCNH2","TNF reporter robust z-score":-1.31,"activity call":"inactive"}
{"gene":"G3BP2","TNF reporter robust z-score":-0.79,"activity call":"inactive"}
{"gene":"G3BP2","TNF reporter robust z-score":-0.99,"activity call":"inactive"}
{"gene":"G3BP2","TNF reporter robust z-score":-0.76,"activity call":"inactive"}
{"gene":"G3BP2","TNF reporter robust z-score":0.13,"activity call":"inactive"}
{"gene":"KCNIP1","TNF reporter robust z-score":-0.47,"activity call":"inactive"}
{"gene":"KCNIP1","TNF reporter robust z-score":1.9,"activity call":"inactive"}
{"gene":"KCNIP1","TNF reporter robust z-score":1.69,"activity call":"inactive"}
{"gene":"KCNIP1","TNF reporter robust z-score":1.92,"activity call":"inactive"}
{"gene":"GRIA4","TNF reporter robust z-score":1.33,"activity call":"inactive"}
{"gene":"GRIA4","TNF reporter robust z-score":-0.56,"activity call":"inactive"}
{"gene":"GRIA4","TNF reporter robust z-score":0.31,"activity call":"inactive"}
{"gene":"GRIA4","TNF reporter robust z-score":3.11,"activity call":"active"}
{"gene":"EFS","TNF reporter robust z-score":-1.78,"activity call":"active"}
{"gene":"EFS","TNF reporter robust z-score":-1.71,"activity call":"active"}
{"gene":"EFS","TNF reporter robust z-score":-1.83,"activity call":"active"}
{"gene":"EFS","TNF reporter robust z-score":-2.01,"activity call":"active"}
{"gene":"PMF1","TNF reporter robust z-score":0.43,"activity call":"inactive"}
{"gene":"PMF1","TNF reporter robust z-score":-0.2,"activity call":"inactive"}
{"gene":"PMF1","TNF reporter robust z-score":0.9,"activity call":"inactive"}
{"gene":"PMF1","TNF reporter robust z-score":-0.12,"activity call":"inactive"}

Entries listed above marked active:
{"gene":"KCNH2","TNF reporter robust z-score":-1.59,"activity call":"active"}
{"gene":"GRIA4","TNF reporter robust z-score":3.11,"activity call":"active"}
{"gene":"EFS","TNF reporter robust z-score":-1.78,"activity call":"active"}
{"gene":"EFS","TNF reporter robust z-score":-1.71,"activity call":"active"}
{"gene":"EFS","TNF reporter robust z-score":-1.83,"activity call":"active"}
{"gene":"EFS","TNF reporter robust z-score":-2.01,"activity call":"active"}

More records follow:
{"gene":"DUX5","TNF reporter robust z-score":-0.09,"activity call":"inactive"}
{"gene":"DUX5","TNF reporter robust z-score":-0.29,"activity call":"inactive"}
{"gene":"DUX5","TNF reporter robust z-score":-0.18,"activity call":"inactive"}
{"gene":"DUX5","TNF reporter robust z-score":1.22,"activity call":"inactive"}
{"gene":"KICS2","TNF reporter robust z-score":-0.05,"activity call":"inactive"}
{"gene":"KICS2","TNF reporter robust z-score":1.17,"activity call":"inactive"}
{"gene":"KICS2","TNF reporter robust z-score":0.13,"activity call":"inactive"}
{"gene":"KICS2","TNF reporter robust z-score":2.06,"activity call":"inactive"}
{"gene":"SLC17A4","TNF reporter robust z-score":-1.1,"activity call":"inactive"}
{"gene":"SLC17A4","TNF reporter robust z-score":-0.82,"activity call":"inactive"}
{"gene":"SLC17A4","TNF reporter robust z-score":-0.65,"activity call":"inactive"}
{"gene":"SLC17A4","TNF reporter robust z-score":-0.48,"activity call":"inactive"}
{"gene":"DMRTC1","TNF reporter robust z-score":-1.58,"activity call":"active"}
{"gene":"DMRTC1","TNF reporter robust z-score":-1.51,"activity call":"active"}
{"gene":"DMRTC1","TNF reporter robust z-score":-1.93,"activity call":"active"}
{"gene":"DMRTC1","TNF reporter robust z-score":-1.31,"activity call":"inactive"}
{"gene":"NADK2","TNF reporter robust z-score":0.95,"activity call":"inactive"}
{"gene":"NADK2","TNF reporter robust z-score":-0.66,"activity call":"inactive"}
{"gene":"NADK2","TNF reporter robust z-score":-0.63,"activity call":"inactive"}
{"gene":"NADK2","TNF reporter robust z-score":0.05,"activity call":"inactive"}
{"gene":"MRPS12","TNF reporter robust z-score":-1.14,"activity call":"inactive"}
{"gene":"MRPS12","TNF reporter robust z-score":-1.06,"activity call":"inactive"}
{"gene":"MRPS12","TNF reporter robust z-score":-1.16,"activity call":"inactive"}
{"gene":"MRPS12","TNF reporter robust z-score":-0.42,"activity call":"inactive"}
{"gene":"NFAT5","TNF reporter robust z-score":-0.92,"activity call":"inactive"}
{"gene":"NFAT5","TNF reporter robust z-score":0.77,"activity call":"inactive"}
{"gene":"NFAT5","TNF reporter robust z-score":-0.09,"activity call":"inactive"}
{"gene":"NFAT5","TNF reporter robust z-score":0.39,"activity call":"inactive"}
{"gene":"CYP4F2","TNF reporter robust z-score":0.45,"activity call":"inactive"}
{"gene":"CYP4F2","TNF reporter robust z-score":0.76,"activity call":"inactive"}
{"gene":"CYP4F2","TNF reporter robust z-score":-0.2,"activity call":"inactive"}
{"gene":"CYP4F2","TNF reporter robust z-score":1.53,"activity call":"inactive"}
{"gene":"CFAP184","TNF reporter robust z-score":-0.39,"activity call":"inactive"}
{"gene":"CFAP184","TNF reporter robust z-score":0,"activity call":"inactive"}
{"gene":"CFAP184","TNF reporter robust z-score":0.05,"activity call":"inactive"}
{"gene":"CFAP184","TNF reporter robust z-score":-0.34,"activity call":"inactive"}
